According to patent publication US20050191735A1, “Oxidoreductase” (priority 2003, published 2005):

Test system: recombinant Lactobacillus reuteri oxidoreductase
Test: ee determination for selected substrates by GC
Conditions: 24 h, 1 to 2 units of oxidoreductase

Row | Structure (SMILES) | Stereoselectivity (percent) [%]
1 | COC(=O)CC(C)=O [Methyl acetoacetate] | 78
2 | CCOC(=O)CC(=O)CCl [Ethyl 4-chloro-acetoacetate] | 56
